Results from the supplement of paper PMC6445147.
Single values of this data set are uncertain.

B1: human tRNA-Pro; a variant is named by its letters at N, in order (parent)
chain: GGCTCGTTGGTCTAGNGGTATGATTCTCGCTTAGGGTGCGAGAGGTCCCGGGTTCNNATCCCGGACGAGCCC

What was measured:
[1] = variants of: B1; assay: tRNA Pol-III promoter activity, log2 (circRNA frequency / plasmid DNA frequency) (log2 ratio); higher = stronger promoter activity; details: HEK293T; construct: no Pol-II promoter ((-)CMV library)
[2] = variants of: B1; assay: tRNA 3' processing efficiency (processed reads / all reads, maximum-likelihood estimate) (fraction); higher = more efficient 3' processing; details: HEK293T; construct: no Pol-II promoter ((-)CMV library)
[3] = variants of: B1; assay: tRNA 5' processing efficiency (processed reads / all reads, maximum-likelihood estimate) (fraction); higher = more efficient 5' processing; details: HEK293T; construct: CMV Pol-II promoter ((+)CMV library, decapped)

Row | Variant | tRNA Pol-III promoter activity (log2) [1] | tRNA 3' processing efficiency [2] | tRNA 5' processing efficiency [3]
1 | GAA T54C C55G T59C | 4.44 | 0.38 | –
2 | TAC G15A | 3.5 | 0.41 | –
3 | GAC A58T | -0.286 | 0.29 | 0.2
4 | GAC A58C | 0.658 | 0.26 | 0.25
5 | GAC A58G | 0.0424 | 0.18 | 0.33
6 | CAA T54G C55T | 4.56 | 0.77 | –
7 | GAA T54A A58G | 1.47 | 0.46 | –
8 | GAA T54A A58T | 0.59 | 0.42 | –
9 | GAC G9T T53A | 2.51 | 0.33 | –
10 | CAC G9T | 2.28 | 0.33 | –
11 | CAC G9A | 2.57 | 0.25 | –
12 | AAC A58G | 4.93 | 0.06 | –
13 | AAC A58C | 5.55 | 0.48 | –
14 | GAC A20T T59C | 4.16 | 0.17 | –
15 | CAA T54A C55G | 4.26 | 0.2 | –
16 | GAC A14T G18A | 4.21 | 0.33 | –
17 | GAC A14T | 1.09 | 0.35 | 0.25
18 | GAC A14G | 1.64 | 0.38 | 0.25
19 | GAC A14C | 2.6 | 0.29 | –
20 | GAC A20T A58T | 3.12 | 0.67 | –
21 | CAC A14T | 3.92 | 0.57 | –
22 | CAC A14G | 3.33 | 0.53 | –

Row | Variant | tRNA Pol-III promoter activity (log2) [1] | tRNA 3' processing efficiency [2] | tRNA 5' processing efficiency [3]
23 | GAC G9T A58G | 1.94 | 0.67 | –
24 | GAC G9A T19G | 3.75 | 0.29 | –
25 | GAC A14G G15C | 3.36 | 0.5 | –
26 | TAC C55T | -0.145 | 0.5 | –
27 | GAC | 1.7 | 0.27 | 0.21
28 | GAA T54A A58T T59C | 5.51 | 0.67 | –
29 | GAC A14C T19A | 3.93 | 0.2 | –
30 | GAA T54C C55T | 0.169 | 0.67 | –
31 | CAC | 2.12 | 0.24 | –
32 | TAC A14C | 6.36 | 0.4 | –
33 | TAC A14T | 4.07 | 0.29 | –
34 | TAC A14G | 2.81 | 0.33 | –
35 | GAC G15A A58G | 4.46 | 0.31 | 0.33
36 | GAC G9T G15C G18T A20T C55A A58C | 4.68 | 0.6 | –
37 | AAC G9C A58G | 5.94 | 0.25 | –
38 | GAC G9A A14G | 3.03 | 0.17 | –
39 | GAC G9A A14C | 3.68 | 0.4 | –
40 | CAC A14T A20G | 6.03 | 0.25 | –
41 | GAA T54A A58G T59A | 3.61 | 0.25 | –
42 | GAA T54A A58G T59G | 4.44 | 0.7 | –
43 | GAC G15A | 1.26 | 0.38 | 0.18
44 | GAC G9A G17T | 6.93 | 0.13 | –

Row | Variant | tRNA Pol-III promoter activity (log2) [1] | tRNA 3' processing efficiency [2] | tRNA 5' processing efficiency [3]
45 | GAC A14T A20G | 3.75 | 0.13 | –
46 | AAA T59G | 2.35 | 0.26 | 0.33
47 | AAA T59C | 3.32 | 0.57 | –
48 | AAA T59A | 1.69 | 0.42 | –
49 | GAC A20C | 0.606 | 0.4 | –
50 | GAC A20T | -0.0868 | 0.4 | –
51 | GAC A20G | 1.74 | 0.3 | –
52 | AAC | 1.22 | 0.24 | –
53 | AAC G9A | 4.25 | 0.2 | –
54 | TAC | 3.38 | 0.38 | 0.4
55 | GAC A20C A58G | 5.03 | 0.5 | –
56 | TAA T54G | 1.71 | 0.56 | –
57 | GAC A20T T53C C55A | 6.03 | 0.42 | –
58 | TAC G9A | 4.24 | 0.25 | –
59 | TAC C55T A58T | 5.36 | 0.13 | –
60 | GAA T54A T59A | 0.891 | 0.33 | –
61 | GAA T54A T59C | 2.39 | 0.36 | –
62 | CAC A58T | 3.07 | 0.33 | –
63 | CAC A58G | 3.26 | 0.4 | –
64 | GAC A14G T19G | 6.03 | 0.12 | –
65 | GAC A14G T19C | 5.15 | 0.57 | –
66 | GAA T54A C55T | -0.253 | 0.54 | –

Row | Variant | tRNA Pol-III promoter activity (log2) [1] | tRNA 3' processing efficiency [2] | tRNA 5' processing efficiency [3]
67 | AAA T54A T59C | 10.8 | 0.06 | –
68 | AAC A14G | 3.1 | 0.2 | –
69 | AAC A14T | 3.25 | 0.42 | –
70 | GAC A20T T27A | 7.99 | 0.52 | –
71 | GAC A33T | 4.94 | 0.25 | –
72 | CAC A20G | 3.62 | 0.25 | 0.25
73 | CAC A20T | 3.43 | 0.29 | –
74 | CAA T54A A58C | 4.75 | 0.29 | –
75 | GAC A20G T59C | 2.75 | 0.43 | –
76 | CAA T59A | 2.7 | 0.49 | –
77 | CAA T59G | 1.64 | 0.34 | –
78 | CAA T59C | 0.384 | 0.26 | –
79 | TAC A20T | 5.36 | 0.2 | –
80 | TAC A20C | 4.36 | 0.25 | –
81 | AAA T54C A58C | 5.03 | 0.7 | –
82 | GAC A58G T59G | 3.01 | 0.27 | –
83 | GAC C55T | 0.48 | 0.08 | 0.09
84 | GAC A58C T59C | 6.2 | 0.11 | –
85 | GAC A58C T59A | 4.67 | 0.2 | –
86 | GAC G9C | -0.246 | 0.42 | –
87 | GAC G9T | -0.159 | 0.21 | –
88 | GAC G9A | 0.896 | 0.4 | 0.5

31 entries from above, with tabs:
Row	Variant	tRNA Pol-III promoter activity (log2) [1]	tRNA 3' processing efficiency [2]	tRNA 5' processing efficiency [3]
1	GAA T54C C55G T59C	4.44	0.38	–
5	GAC A58G	0.0424	0.18	0.33
16	GAC A14T G18A	4.21	0.33	–
17	GAC A14T	1.09	0.35	0.25
21	CAC A14T	3.92	0.57	–
24	GAC G9A T19G	3.75	0.29	–
29	GAC A14C T19A	3.93	0.2	–
32	TAC A14C	6.36	0.4	–
34	TAC A14G	2.81	0.33	–
36	GAC G9T G15C G18T A20T C55A A58C	4.68	0.6	–
39	GAC G9A A14C	3.68	0.4	–
40	CAC A14T A20G	6.03	0.25	–
43	GAC G15A	1.26	0.38	0.18
45	GAC A14T A20G	3.75	0.13	–
46	AAA T59G	2.35	0.26	0.33
47	AAA T59C	3.32	0.57	–
50	GAC A20T	-0.0868	0.4	–
54	TAC	3.38	0.38	0.4
58	TAC G9A	4.24	0.25	–
59	TAC C55T A58T	5.36	0.13	–
61	GAA T54A T59C	2.39	0.36	–
64	GAC A14G T19G	6.03	0.12	–
68	AAC A14G	3.1	0.2	–
69	AAC A14T	3.25	0.42	–
72	CAC A20G	3.62	0.25	0.25
73	CAC A20T	3.43	0.29	–
74	CAA T54A A58C	4.75	0.29	–
75	GAC A20G T59C	2.75	0.43	–
77	CAA T59G	1.64	0.34	–
78	CAA T59C	0.384	0.26	–
79	TAC A20T	5.36	0.2	–

Single entries from the results shown:
GAC A58C T59A – tRNA 3' processing efficiency [2]: 0.2
GAC G9A – tRNA 5' processing efficiency [3]: 0.5
GAC A58C T59C – tRNA Pol-III promoter activity (log2) [1]: 6.2

More results follow:

Row | Variant | tRNA Pol-III promoter activity (log2) [1] | tRNA 3' processing efficiency [2] | tRNA 5' processing efficiency [3]
89 | GAC A14T T59C | 4.67 | 0.4 | –
90 | GAC G9T T53C A58T | 3.45 | 0.5 | –
91 | GAC A14T T19G | 5.93 | 0.25 | –
92 | GAC A14T T19A | 2.91 | 0.29 | –
93 | GAC A14T A58C | 4.03 | 0.22 | –
94 | GAC A14T A58G | 6.34 | 0.19 | –
95 | GAC G9T T59C | 5.15 | 0.14 | –
96 | GAC G9T T59G | 6.25 | 0.4 | –
97 | TAC A14T T59A | 3.93 | 0.44 | –
98 | TAA T54A A58G | 2.55 | 0.8 | –
99 | TAA T59C | 3.34 | 0.65 | –
100 | TAA T59G | 2.13 | 0.27 | –
101 | TAA T59A | 1.75 | 0.21 | –
102 | GAA T59G | 2.01 | 0.38 | 0.29
103 | GAA T59A | 0.894 | 0.36 | 0.25
104 | GAA T59C | 2.84 | 0.41 | 0.18
105 | TAC A14G A58G | 5.75 | 0.57 | –
106 | AAC A20G | 3.21 | 0.5 | –
107 | GAC G9T A20G | 3.08 | 0.22 | –
108 | GAC A14C G15T G17T | 3.36 | 0.33 | –
109 | GAA T54G | -2.58 | 0.31 | 0.31
110 | GAA T54C | -2.46 | 0.25 | 0.5
